{"source": "patent US9566341B1", "about": "“Compounds including Cox inhibitor moiety and enhanced delivery of active drugs using same” (University of Kentucky Research Foundation, priority 2011, dated 2017)", "assay": "In vitro diffusion study across microneedle-treated full thickness Yucatan miniature pig skin", "format": "in vitro ADME", "conditions": "base form; saturated donor PG:ethanol:water=43:43:14; MN treated skin; 48 h; n=3; listed as codrug", "procedure": "For all in vitro experiments female Yucatan minipig skin (6 months old) were used. Skin sections were obtained by removing the subcutaneous fatty tissue by scalpel dissection, and were stored at −20° C. A PermeGear flow-through (In-Line, Riegelsville, Pa., USA) diffusion cell system was used for the skin permeation studies.\nThe skin was pierced 20 times with an array containing 5 MN (i.e., to make a total of 100 individual and non-over lapping piercings) before mounting the skin in the diffusion cell for the treatment group. The insertion of MN into skin was carried out manually by applying gentle finger pressure followed by instantaneous removal. […]\nThe physiological receiver solution was water adjusted to pH 7.4 containing 20% ethanol, and the flow rate was adjusted to 1.5 ml/h. […] All samples were stored at 4° C. until analyzed by HPLC.\nThe in vitro permeation experiments were carried out to determine the transdermal flux of the parent drugs and the codrug, permeation coefficients as well as the concentration of the drug molecules in the skin at the end of the study. […] Drug was concentrated 10 fold by evaporating 1 ml of the collected sample under nitrogen and reconstituting in 100 μl of ACN for quantification. All samples were stored at 4° C. until analyzed by HPLC. […] Samples were injected into the HPLC after appropriate dilution for quantitative analysis. […]", "note": "At least one compound was matched to its structure with a doubt left.", "data": [{"molecule": "O=C(Cc1ccccc1Nc1c(Cl)cccc1Cl)Oc1ccc2c3c1O[C@H]1C(=O)CC[C@@]4(O)[C@@H](C2)N(CC2CC2)CC[C@]314", "note": "[Compound 2A]", "values": [{"measurement": "steady state flux of diclofenac from the codrug", "result": "0.1910.06 nmol/(cm^2/h)"}]}]}
